Results as given in PMC8834437, “Physical Interaction between Embryonic Stem Cell-Expressed Ras (ERas) and Arginase-1 in Quiescent Hepatic Stellate Cells” (Cells, 2022).
Results are given in words; binding and its absence hold for the method and conditions named. In cells and extracts the contact can be indirect. Some entries that bind do so weakly or less than the wild type. For some of these results: Where a sequence is shown, tags or fusion partners need not be part of it.

Columns and labels:
[1] = target: T1, hsERas FL overexpressed in HEK293 cells (EYFP fusion) (human) (UniProt Q7Z444); assay: co-IP; ERas constructs overexpressed in HEK293 cells, GFP-coupled nanobeads, 1 h at 4 °C, immunoblot with monoclonal antibody against ARG1
T1 sequence: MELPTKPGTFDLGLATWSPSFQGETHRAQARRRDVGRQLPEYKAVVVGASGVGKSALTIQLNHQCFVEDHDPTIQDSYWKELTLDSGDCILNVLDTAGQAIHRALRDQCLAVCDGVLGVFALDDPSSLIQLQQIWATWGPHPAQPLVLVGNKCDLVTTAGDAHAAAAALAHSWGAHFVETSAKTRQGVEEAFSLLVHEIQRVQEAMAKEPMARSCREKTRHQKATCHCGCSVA

[2] = target: T2, hsERas Nex overexpressed in HEK293 cells (EYFP fusion) (human) (UniProt Q7Z444); assay: as above
T2 sequence: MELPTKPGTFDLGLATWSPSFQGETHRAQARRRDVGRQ

[3] = target: T3, hsERas ΔC overexpressed in HEK293 cells (EYFP fusion) (human) (UniProt Q7Z444); assay: as above
T3 sequence: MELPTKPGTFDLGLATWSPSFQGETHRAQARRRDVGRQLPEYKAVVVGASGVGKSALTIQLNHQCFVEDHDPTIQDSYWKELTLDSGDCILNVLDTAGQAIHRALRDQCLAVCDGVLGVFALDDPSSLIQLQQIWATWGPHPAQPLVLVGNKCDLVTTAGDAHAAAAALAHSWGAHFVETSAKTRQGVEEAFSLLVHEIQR

[4] = target: T4, rnERas FL overexpressed in HEK293 cells (EYFP fusion) (rat) (UniProt D3ZTE4); assay: as above
T4 sequence: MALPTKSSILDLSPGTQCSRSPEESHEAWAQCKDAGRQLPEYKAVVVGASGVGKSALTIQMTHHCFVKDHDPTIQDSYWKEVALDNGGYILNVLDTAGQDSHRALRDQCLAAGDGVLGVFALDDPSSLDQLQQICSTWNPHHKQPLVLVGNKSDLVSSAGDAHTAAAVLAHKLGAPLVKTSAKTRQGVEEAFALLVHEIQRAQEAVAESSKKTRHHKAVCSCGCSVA

[5] = target: T5, rnERas Nex overexpressed in HEK293 cells (EYFP fusion) (rat) (UniProt D3ZTE4); assay: as above
T5 sequence: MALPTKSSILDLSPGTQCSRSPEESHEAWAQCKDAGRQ

[6] = target: T6, rnERas ΔC overexpressed in HEK293 cells (EYFP fusion) (rat) (UniProt D3ZTE4); assay: as above
T6 sequence: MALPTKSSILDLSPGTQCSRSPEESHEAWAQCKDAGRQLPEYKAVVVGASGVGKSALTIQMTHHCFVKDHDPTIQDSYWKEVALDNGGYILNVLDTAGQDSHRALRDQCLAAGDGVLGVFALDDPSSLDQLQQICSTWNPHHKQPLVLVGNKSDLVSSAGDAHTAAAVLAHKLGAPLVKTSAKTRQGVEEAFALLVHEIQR

[7] = target: T7, N-terminally truncated ERas (ΔN; aa 39-233), overexpressed (human) (UniProt Q7Z444); assay: pull-down; purified ARG1 with overexpressed ERas ΔN, ERas WT or EYFP (Supplementary Figure S4A); only the binder purified
T7 sequence: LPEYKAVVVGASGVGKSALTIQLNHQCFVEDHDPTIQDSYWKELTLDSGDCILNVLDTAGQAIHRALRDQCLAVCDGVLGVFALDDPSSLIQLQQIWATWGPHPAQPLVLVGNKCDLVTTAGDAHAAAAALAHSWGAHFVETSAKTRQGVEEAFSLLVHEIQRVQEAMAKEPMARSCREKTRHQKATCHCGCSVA

[8] = target: T1, hsERas FL overexpressed in HEK293 cells (EYFP fusion) (human); assay: as above
[9] = target: T8, ERas, endogenous in freshly isolated rat hepatic stellate cells (d0) (rat (endogenous in HSCs)) (UniProt D3ZTE4); assay: co-IP; ERas antibody or IgG control, Protein G beads, total cell lysates of freshly isolated HSCs (d0), 4 °C
T8 sequence: T4 sequence

[10] = target: T9, GST-rnNex (rat ERas N-terminal extension, aa 1-38) (rat) (UniProt D3ZTE4); assay: pull-down; purified GST-rnNex on GSH beads, freshly isolated HSC (d0) lysates, immunoblot with anti-ARG1 antibody; only the target purified
T9 sequence: T5 sequence

B1: ARG1 in HEK293 cell lysate (enzyme, UniProt P05089 1-322)
chain: MSAKSRTIGIIGAPFSKGQPRGGVEEGPTVLRKAGLLEKLKEQECDVKDYGDLPFADIPNDSPFQIVKNPRSVGKASEQLAGKVAEVKKNGRISLVLGGDHSLAIGSISGHARVHPDLGVIWVDAHTDINTPLTTTSGNLHGQPVSFLLKELKGKIPDVPGFSWVTPCISAKDIVYIGLRDVDPGEHYILKTLGIKYFSMTEVDRLGIGKVMEETLSYLLGRKKRPIHLSFDVDGLDPSFTPATGTPVVGGLTYREGLYITEEIYKTGLLSGLDIMEVNPSLGKTPEEVTRTVNTAVAITLACFGLAREGNHKPIDYLNPPK
Question: For B1, which binding [1] is on record?
Answer: binds

Question: And the binding [2]?
Answer: binds

Question: And the binding [3]?
Answer: binds

Question: What about the binding [4] of the same binder?
Answer: binds

Question: And the binding [5]?
Answer: binds

Question: What about the binding [6] of the same binder?
Answer: binds

B2: purified arginase 1 (ARG1; aa 1-322) (enzyme, UniProt P05089 1-322)
chain: B1 chain
Question: How did the binding [7] turn out when B2 was run?
Answer: binds weakly

Question: And the binding [8]?
Answer: binds

B3: ARG1, endogenous in freshly isolated rat hepatic stellate cells (d0) (enzyme, UniProt P07824 1-323)
chain: MSSKPKPIEIIGAPFSKGQPRGGVEKGPAALRKAGLVEKLKETEYNVRDHGDLAFVDVPNDSPFQIVKNPRSVGKANEQLAAVVAETQKNGTISVVLGGDHSMAIGSISGHARVHPDLCVIWVDAHTDINTPLTTSSGNLHGQPVAFLLKELKGKFPDVPGFSWVTPCISAKDIVYIGLRDVDPGEHYIIKTLGIKYFSMTEVDKLGIGKVMEETFSYLLGRKKRPIHLSFDVDGLDPVFTPATGTPVVGGLSYREGLYITEEIYKTGLLSGLDIMEVNPTLGKTPEEVTRTVNTAVALTLSCFGTKREGNHKPETDYLKPPK
Question: Which results are given for B3?
Answer: binding [9]: binds; binding [10]: binds
